“Also recorded” adds a separate entry of the source. Part of at least one peptide drawing is inferred or uncertain, most often the ends. No end group written: not given here.
How the values were obtained:
[1] = tested on: TAL6-expressed EL4 (EL4/L6) cells; assay: ADCC Cr51 release assay with sera of immunized mice, EL4/L6 target cells; format: cell-based; conditions: HLA-A2 transgenic mice; formulated in PELC
Procedure: FIG. 2 is a set of graphs showing that immunization of WT mice with the EP1 peptide induced anti-tumor immunity. EP1 or positive control MCF-7/TAL6 cells formulated with incomplete Freund's adjuvant (IFA) were administered to mice twice at a two-week interval. (A) Anti-TAL6 antibody titers were determined by using cell-based ELISA. Antigen-specific antibody was calculated as: EL4-L6 (O.D.)−EL4 (O.D.). (B) TAL6-specific ADCC was determined in a Cr^51 release assay. The lysis percentage was calculated as immunized serum (lysis %)−naïve serum (lysis %). ***P<0.001.
FIG. 6 is a set of graphs showing that immunization with PELC/CpG/Th-A2-5-EP1 induced high levels of humoral and cellular immunity in HLA-A2 mice. The Th-A2-5-EP1 peptide was formulated with different adjuvants. […] (A) IFN-γ-secreting cells were determined using IFN-γ ELISpot assay. Results are expressed as mean SD. ***P<0.001. […] (D) TAL6-specific ADCC was determined by Cr^51 release assay. The lysis percentage was calculated as: immunized serum (lysis %)—naïve serum (lysis %) ***P<0.001.
To test whether the EP1 peptide could raise antibodies that bind native TAL6, the EP1 peptide or MCF-7/L6 cells (as positive control) were formulated with IFA/Th and administered to C57BL/6 mice. Sera from immunized mice were collected and the anti-TAL6 antibody titers were analyzed using cell-based ELISA. […]

The chains behind the UniProt entries cited, without tags or fusion partners. Where a name states a change or a piece, a line headed by the entry shows the natural chain unless it says otherwise.
UniProt P30408: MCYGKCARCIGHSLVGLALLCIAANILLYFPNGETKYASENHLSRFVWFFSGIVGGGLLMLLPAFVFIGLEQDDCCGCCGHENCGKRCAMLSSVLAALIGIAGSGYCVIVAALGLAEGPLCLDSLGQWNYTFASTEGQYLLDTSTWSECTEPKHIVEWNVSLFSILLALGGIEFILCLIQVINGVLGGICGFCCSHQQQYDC

B16-L6-A2 cells = assay: Immunization then subcutaneous B16-L6-A2 tumor challenge in HLA-A2 transgenic mice; format: in vivo
[2] = tested on: A2-5-specific T cell responses (IFN-γ-secreting cells); assay: IFN-γ ELISPOT assay of spleen cells of immunized mice; format: in vivo, HLA-A2 transgenic mice
CD107a+CD8+ T cells = assay: CD107a cytotoxicity assay of splenocytes of immunized mice; format: in vivo, HLA-A2 transgenic mice; conditions: formulated with PELC/CpG; splenocytes stimulated with irradiated EL4-L6-A2 or EL4-L6 cells for 2 hours
EP1 peptide = target: T1, EP1 peptide (Homo sapiens, UniProt P30408); assay: ELISA of anti-sera of immunized mice on EP1-coated plate; format: in vivo, HLA-A2 transgenic mice; conditions: anti-sera 1:500
T1 construct: host or cells: synthetic peptide

B16-L6 cells [3] = assay: Wound healing (Culture-Insert) cell migration assay; format: cell-based
B16-L6 cells [4] = assay: B16-L6 metastasis mouse model (lung tumor nodules); format: in vivo, HLA-A2 transgenic mice; conditions: B16-L6 5×10^5 i.v., day 22, data not shown

## AKFVAAWTLKAAAAAALLMLLPAFVAAAGLAEGPLCLDSLGQWNYTFA [Th-A2-5-EP1]
[1]
  ADCC activity of sera, rank among adjuvant formulations: second highest ADCC activity
B16-L6-A2 cells; formulated with CpG, B16/L6/A2 cells 2×10^4, FIG. 7
  anti-tumor activity: moderate anti-tumor activity
B16-L6-A2 cells; formulated with DOTAP/CpG, B16/L6/A2 cells 2×10^4, FIG. 7
  anti-tumor activity: moderate anti-tumor activity
B16-L6-A2 cells; formulated with DOTAP, B16/L6/A2 cells 2×10^4, FIG. 7
  anti-tumor activity: moderate anti-tumor activity
B16-L6-A2 cells; formulated with IFA, 50 μg per mouse twice, 2×10^4 B16-L6-A2 cells s.c., FIG. 5
  tumor growth: strongly inhibited tumor growth
B16-L6-A2 cells; formulated with IFA, B16/L6/A2 cells 2×10^4, FIG. 7
  anti-tumor activity: moderate anti-tumor activity
B16-L6-A2 cells; formulated with PELC/CpG, B16/L6/A2 cells 2×10^4, compared to the other formulations, FIG. 7
  tumor growth: significantly inhibited tumor growth
B16-L6-A2 cells; formulated with PELC, B16/L6/A2 cells 2×10^4, FIG. 7
  anti-tumor activity: moderate anti-tumor activity
[2]; formulated with CpG
  number of spots (IFN-γ-secreting cells): 107.2±23.89 spots
[2]; formulated with DOTAP
  number of spots (IFN-γ-secreting cells): 60.5±7.85 spots
[2]; formulated with DOTAP/CpG
  number of spots (IFN-γ-secreting cells): 112.5±33.18 spots
[2]; formulated with IFA
  number of spots (IFN-γ-secreting cells): 18±9.75 spots
[2]; formulated with PELC/CpG
  number of spots (IFN-γ-secreting cells): 368.5±40.42 spots
CD107a+CD8+ T cells
  numbers of CD107a+CD8+ T cells: 6.69±0.49%
EP1 peptide; formulated with CpG alone
  IgG antibody amount against EP1: 0.54±0.02 O.D.
EP1 peptide; formulated with DOTAP liposomes
  IgG antibody amount against EP1: 0.454±0.025 O.D.
EP1 peptide; formulated with DOTAP/CpG
  IgG antibody amount against EP1: 0.46±0.02 O.D.
EP1 peptide; formulated with IFA
  IgG antibody amount against EP1: 0.622±0.183 O.D.
EP1 peptide; formulated with PELC containing CpG
  IgG antibody amount against EP1: 1.41±0.04 O.D.
EP1 peptide; formulated with PELC
  IgG antibody amount against EP1: 1.01±0.24 O.D.
B16-L6 cells [3]; sera (1:100, v/v) of mice immunized with peptide formulated with CpG alone
  Migration (%) = gap area at 48 hr/gap at 0 hr×100%: 72.97%±5.97
B16-L6 cells [3]; sera (1:100, v/v) of mice immunized with peptide formulated with PELC/CpG
  Migration (%) = gap area at 48 hr/gap at 0 hr×100%: 43.04%±15.47
B16-L6 cells [3]; serum (1:100) of mice immunized with peptide and PELC/CpG, data not shown
  cancer cell migration, images at 0, 24 and 48 hours: inhibition of cancer cell migration
B16-L6 cells [4]; formulated with CpG
  tumor nodule formation in lungs: dramatically reduced tumor nodule formation in lungs
B16-L6 cells [4]; formulated with PELC/CpG
  tumor nodule formation in lungs: dramatically reduced tumor nodule formation in lungs; also recorded: almost no tumor nodules were observed
B16-L6 cells [4]; formulated with PELC
  tumor nodule formation in lungs: dramatically reduced tumor nodule formation in lungs

From patent US10995126B2, “Immunogenic peptide containing a b cell epitope of tumor associated antigen L6” (National Health Research Institutes, priority 2016, dated 2021)
